Test results as given in patent publication US20210269482A1.
No constants are given. Whether binding was seen depends on the method and setting. Some results given as binding are weak or reduced against the parent protein; the word gives no strength.

Protein sequences, listed by entry. Tags and fused reporters are not part of them. Residues count along the entry.
UniProt P35222: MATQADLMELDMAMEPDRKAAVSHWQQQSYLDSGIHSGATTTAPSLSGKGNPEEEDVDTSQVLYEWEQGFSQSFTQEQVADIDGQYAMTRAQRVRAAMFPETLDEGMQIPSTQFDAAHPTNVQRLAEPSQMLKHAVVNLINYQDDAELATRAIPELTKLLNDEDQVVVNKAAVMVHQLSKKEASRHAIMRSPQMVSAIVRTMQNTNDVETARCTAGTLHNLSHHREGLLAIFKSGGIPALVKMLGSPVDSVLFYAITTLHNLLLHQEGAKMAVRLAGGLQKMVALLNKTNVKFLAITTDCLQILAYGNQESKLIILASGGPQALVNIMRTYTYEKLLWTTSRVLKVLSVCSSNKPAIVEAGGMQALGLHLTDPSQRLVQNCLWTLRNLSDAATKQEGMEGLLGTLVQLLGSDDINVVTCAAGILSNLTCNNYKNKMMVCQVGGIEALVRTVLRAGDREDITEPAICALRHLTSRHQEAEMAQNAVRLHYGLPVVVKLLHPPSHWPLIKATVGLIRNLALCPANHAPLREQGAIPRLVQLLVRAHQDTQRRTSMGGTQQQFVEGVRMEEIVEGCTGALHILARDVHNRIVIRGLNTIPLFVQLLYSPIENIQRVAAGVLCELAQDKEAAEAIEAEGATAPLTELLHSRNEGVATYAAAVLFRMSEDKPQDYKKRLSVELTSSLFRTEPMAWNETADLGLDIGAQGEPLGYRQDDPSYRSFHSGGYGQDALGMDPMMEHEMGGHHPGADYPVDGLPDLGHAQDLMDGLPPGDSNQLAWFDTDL
UniProt P12830, residues 731-882: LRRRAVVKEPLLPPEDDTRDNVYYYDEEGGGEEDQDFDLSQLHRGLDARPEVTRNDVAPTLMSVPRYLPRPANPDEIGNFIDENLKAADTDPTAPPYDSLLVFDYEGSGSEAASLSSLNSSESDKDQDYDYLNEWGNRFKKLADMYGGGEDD

Target: β-catenin as used in the two-hybrid like assay (UniProt P35222)
Experiment: two-hybrid like assay

binding: binds
Substance: E-cadherin (from UniProt P12830 731-882)
